According to PMC7862700:
Only a part is listed here, and it is no random draw. For part of these data: At the low end of the ranking, values are background and their order means little. The list shows a part of the results. For part of these data: The exact form of the protein is not confirmed.

Key:
GABPA = molecular target: T1, GABPA (UniProt Q06546); assay: DAPPL (digital affinity profiling via proximity ligation, sequencing); details: 10 mM Tris-HCl pH 7.5, 50 mM NaCl, 1 mM DTT, 4% glycerol, room temperature, 30 min; GST-TFs on glutathione beads, 16-mer random dsDNA library, 0.1% …; high values mean tight binding; double strand, one strand shown; scale: fold enrichment (6-mer frequency, TF over GST control)
T1 sequence: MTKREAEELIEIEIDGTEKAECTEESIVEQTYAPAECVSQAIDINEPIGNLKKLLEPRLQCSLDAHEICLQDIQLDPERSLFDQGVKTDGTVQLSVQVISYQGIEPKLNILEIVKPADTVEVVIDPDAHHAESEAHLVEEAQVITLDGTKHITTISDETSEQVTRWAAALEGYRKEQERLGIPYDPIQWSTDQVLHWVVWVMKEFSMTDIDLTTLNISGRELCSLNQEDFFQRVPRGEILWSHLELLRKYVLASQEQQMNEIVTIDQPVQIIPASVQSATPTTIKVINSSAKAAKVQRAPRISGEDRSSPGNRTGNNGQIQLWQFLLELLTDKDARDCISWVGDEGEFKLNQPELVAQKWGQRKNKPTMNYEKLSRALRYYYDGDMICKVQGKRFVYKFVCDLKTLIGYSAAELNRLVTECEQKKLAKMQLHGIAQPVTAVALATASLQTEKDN

ETS1 = molecular target: T2, ETS1 (UniProt P14921); assay: as above; details: 10 mM Tris-HCl pH 7.5, 50 mM NaCl, 1 mM DTT, 4% glycerol, room temperature, 30 min; GST-TFs on glutathione beads, 16-mer random dsDNA library, 0.1% …; high values mean tight binding; double strand, one strand shown; scale: fold enrichment (6-mer frequency, TF over GST control)
T2 sequence: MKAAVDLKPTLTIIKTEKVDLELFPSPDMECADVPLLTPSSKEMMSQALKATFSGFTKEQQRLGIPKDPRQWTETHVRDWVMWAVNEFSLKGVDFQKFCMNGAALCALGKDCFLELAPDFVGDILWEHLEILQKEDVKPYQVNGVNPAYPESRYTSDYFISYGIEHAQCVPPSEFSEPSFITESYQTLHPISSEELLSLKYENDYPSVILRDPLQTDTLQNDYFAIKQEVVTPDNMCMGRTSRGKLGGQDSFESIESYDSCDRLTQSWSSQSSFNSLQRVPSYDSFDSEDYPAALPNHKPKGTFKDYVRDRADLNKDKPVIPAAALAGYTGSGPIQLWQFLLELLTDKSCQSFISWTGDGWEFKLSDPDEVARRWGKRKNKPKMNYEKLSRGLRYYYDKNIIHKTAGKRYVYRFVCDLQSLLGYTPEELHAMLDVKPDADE

Sequence	binding signal (GABPA)	binding signal (ETS1)
ATTGTT	1.55	1.38
CAGATC	0.907	0.939
TCTCTT	1.45	1.46
AGTACT	1.19	1.12
TATAGG	1.19	1.17
TAGATA	1.1	1.05
AACCGC	1.1	1.13
ATTAGT	0.974	1.04
ATTACT	1.29	1.21
CAACCT	1.23	1.21
GGATAC	0.974	0.885
ACCCTC	1.15	1.19
CGACTG	0.988	1.05
AAGCGG	1.11	1.09
CCTTAC	1.37	1.37
CGGATT	0.96	0.883
ACACCG	0.996	0.969
ATATTT	1.55	1.5
CGCTTG	1.09	1.02
CTGCAG	1.16	1.03

Not a retest: an excerpt of the list.
Sequence	binding signal (GABPA)	binding signal (ETS1)
AAGCGG	1.11	1.09
CCTTAC	1.37	1.37
CGGATT	0.96	0.883

Further results.

Sequence	binding signal (GABPA)	binding signal (ETS1)
CCTAGG	1.04	0.959
CTACGT	1.18	1.16
ATTCAA	1.4	1.46
CTTTAT	1.18	1.21
GGCCTT	1.29	1.21
ATGGTC	1.65	1.57
ATATTC	1.24	1.26
CTTCGA	1.25	1.36
CGGTTC	1.19	1.11
CACACG	1.23	1.11
TTTCGG	1.14	1.16
TAGCTC	1.2	1.16
GTCCTT	1.28	1.3
CCACCT	1.1	1.1
TTACTA	1.36	1.28
ATAATG	1.06	1.15
GTACAC	1.18	1.21
CAAGTT	0.989	1.09
GCCGGA	0.971	0.951
GTTGTA	0.941	1.1

Sequence	binding signal (GABPA)	binding signal (ETS1)
AAAGCA	1.15	1.06
GTTATA	0.997	1.02
CACGGA	0.996	1.08
ATAGTT	1.16	1.16
GTTCAC	1.32	1.28
ACGCCG	1.11	1.13
CAAACA	1.18	1.18
TGTTTC	1.59	1.86
ATCCTT	1.64	1.69
TCGTTT	1.28	1.18
TCCGTA	1.59	1.48
TCCTGA	1.47	1.38
TAGATC	0.979	1.14
TTTGGA	1.24	1.23
AACACG	1.1	1.2
AAACAA	1.2	1.29
TCGATG	1.12	1.02
TCATAT	1.26	1.23
CGTTGT	1	1.03
CAATTT	1.37	1.39
